Assay results as given in PMC12293820.
No constants are given. Whether binding was seen depends on the method and setting. In cells and extracts the contact can be indirect. Some entries that bind do so weakly or less than the wild type.

Chains of the proteins cited; added tags and fusions are not shown.
UniProt Q16665: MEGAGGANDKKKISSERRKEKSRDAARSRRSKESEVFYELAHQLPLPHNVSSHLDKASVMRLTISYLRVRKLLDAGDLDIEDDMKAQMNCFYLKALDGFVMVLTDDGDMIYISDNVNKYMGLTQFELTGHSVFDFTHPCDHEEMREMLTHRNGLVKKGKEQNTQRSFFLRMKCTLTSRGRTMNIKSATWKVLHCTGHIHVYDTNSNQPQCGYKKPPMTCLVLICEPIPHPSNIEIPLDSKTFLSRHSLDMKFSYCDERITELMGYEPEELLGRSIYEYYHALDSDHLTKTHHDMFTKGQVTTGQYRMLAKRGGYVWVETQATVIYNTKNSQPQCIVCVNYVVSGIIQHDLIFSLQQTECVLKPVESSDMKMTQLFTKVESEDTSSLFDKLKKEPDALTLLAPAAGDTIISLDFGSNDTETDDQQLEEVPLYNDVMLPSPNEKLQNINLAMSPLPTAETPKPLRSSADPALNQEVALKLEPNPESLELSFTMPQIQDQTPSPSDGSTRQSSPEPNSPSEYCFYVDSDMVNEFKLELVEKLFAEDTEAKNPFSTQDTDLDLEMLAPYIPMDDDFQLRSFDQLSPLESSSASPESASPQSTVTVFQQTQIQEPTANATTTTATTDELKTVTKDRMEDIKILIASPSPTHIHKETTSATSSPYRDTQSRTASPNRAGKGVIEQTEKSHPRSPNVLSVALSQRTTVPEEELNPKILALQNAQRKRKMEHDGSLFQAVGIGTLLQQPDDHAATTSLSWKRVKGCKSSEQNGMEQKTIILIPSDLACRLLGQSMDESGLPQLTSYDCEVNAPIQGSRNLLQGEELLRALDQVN

Key:
[1] = molecular target: T1, Estrogen-Related Receptor α (human (endogenous in MCF-7 and SK-BR-3)) (UniProt P11474); assay: condition: only cells treated with YC-1 2.5 µM for 24 h; co-IP; as a1, hypoxic MCF-7 and SK-BR-3 cells incubated 24 h with YC-1 (HIF-1α inhibitor) 2.5 µM before lysis
T1 sequence: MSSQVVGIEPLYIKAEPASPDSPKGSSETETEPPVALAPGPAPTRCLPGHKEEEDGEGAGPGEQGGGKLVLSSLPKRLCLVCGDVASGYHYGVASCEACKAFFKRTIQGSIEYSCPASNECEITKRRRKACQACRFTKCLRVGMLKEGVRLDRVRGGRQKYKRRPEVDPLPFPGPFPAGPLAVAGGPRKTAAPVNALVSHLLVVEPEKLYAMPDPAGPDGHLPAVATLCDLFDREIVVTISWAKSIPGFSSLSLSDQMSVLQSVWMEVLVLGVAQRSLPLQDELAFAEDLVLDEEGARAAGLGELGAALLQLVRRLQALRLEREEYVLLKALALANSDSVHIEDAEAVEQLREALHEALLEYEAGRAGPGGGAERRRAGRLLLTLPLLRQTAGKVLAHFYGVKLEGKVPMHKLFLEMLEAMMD

[2] = molecular target: T1, Estrogen-Related Receptor α (human (endogenous in MCF-7 and SK-BR-3)); assay: condition: only cells treated with XCT790 10 µM for 24 h; co-IP; as a1, hypoxic MCF-7 and SK-BR-3 cells incubated 24 h with XCT790 (inverse agonist of ERRα) 10 µM before lysis
[3] = molecular target: T1, Estrogen-Related Receptor α (human (endogenous in MCF-7 and SK-BR-3)); assay: co-IP; 500 µg total protein of MCF-7 (spheroid) or SK-BR-3 (375 µM CoCl2) cells under hypoxia; lysis in 50 mM Tris-HCl pH 7.4, 150 mM NaCl, 1% Triton X-100; immunoprecipitated overnight with rabbit polyclonal anti-ERRα and protein-G Sepharose; washes incl. 0.5 M LiCl; Western blot
[4] = molecular target: T1, Estrogen-Related Receptor α (human (endogenous in MCF-7 and SK-BR-3)); assay: condition: only cells treated with DES 25 µM for 24 h; co-IP; as a1, hypoxic MCF-7 and SK-BR-3 cells incubated 24 h with DES (ERRα inhibitor) 25 µM before lysis

binding [1]: no binding | binding [2]: no binding | binding [3]: binds | binding [4]: no binding
Substance: Hypoxia-inducible factor 1-alpha (from UniProt Q16665 1-826)
